Entries after “also recorded” stand apart in the source; their conditions may differ. At least one compound was matched to its structure with a doubt left.
Assays:
MT1-MMP = target: T1, MT1-MMP (Homo sapiens, UniProt P50281); experiment: In situ gelatin degrading assay (DQ gelatin or Alexa488-conjugated gelatin); format: cell-based; settings: MT1-MMP- or MT1-MT4PEX-expressing cells
T1 construct: expressed in transfected cells
Procedure: Two different in situ gelatin degrading assays were performed. One used DQ™ gelatin (Molecular Probes, Inc., OR, USA). DQ gelatin is a fluorescence-quenched gelatin substrate, and will fluoresce upon proteolytic cleavage. Glass cover slips were coated with 5% DQ™ gelatin in a 10 mg/ml unlabeled gelatin solution, and dried. Transfected cells were cultured on the cover slip in a humidified chamber for 16 hrs. The cells were then fixed with 3% para-formaldehyde and the degraded areas were visualized as those showing fluorescence.
The other assay used Alexa488-conjugated gelatin made with an Alexa488-labeling kit (Molecular Probes). […] The cells were then fixed with 3% para-formaldehyde in PBS, and the degraded area was analyzed under a fluorescence microscope. […] Fluorescence images were analyzed using confocal microscopy (BioRad).
Next, to determine if MT1PEX-F affects the catalytic activity of MT1-MMP on the cell surface or not, tests for gelatin degrading activity and binding capacity to TIMP-2 were conducted using cells transfected in the same incubator. […] Transfected cells on the DQ™ gelatin-coated cover slip as shown in FIG. 13 were incubated in a medium at 37° C. for 18 hrs, and the generated fluorescence was analyzed using confocal microscopy. […] DQ™ gelatin is a fluorescence-quenched gelatin, which fluoresces upon proteolytic cleavage. […]

HT1080 cells = experiment: Activation of endogenous proMMP-2 in HT1080 cells (zymography, Western blotting); format: cell-based, human; settings: hygromycin-resistant HT1080 cells, serum-free medium (FIG. 31)
Procedure: FIG. 31: In regard to the efficacy of MT1PEX-F on the matrigel invasive action of HT1080 cells, HT1080 cells were transfected with the stable expression plasmids for MT1PEX-F and the empty vector (Mock). Hygromycin resistant cells were collected and re-seeded. The culture medium was changed to a serum-free medium in the presence or absence of BB94, and the cells were further cultured. The culture media and the cell lysates were analyzed by gelatin zymography and Western blotting using an anti-MT1PEX antibody, respectively.
HT1080 cells are known to express MT1-MMP and MMP-2 endogenously. Thus, the efficacy of MT1PEX-F expression on the activation of endogenous proMMF-2 in HT1080 cells was next examined. The cells were transfected with a plasmid for MT1PEX-F or an empty vector bearing the hygromycin-resistant gene. The culture medium from the hygromycin-resistant cells was analyzed for produced MMP-2 by zymography. […] Co-expression of endogenous MT1-MMP and MT1PEX-F clearly indicated the co-localization of both molecules at the edge of the cells (FIG. 32).

For `CNC(=O)[C@H](Cc1ccccc1)NC(=O)[C@H](CC(C)C)[C@H](CSc1cccs1)C(=O)NO` [BB94, [4-(N-hydroxyamino)-2R-isobutyl-3S-(thiophen-2-ylthiomethyl)-succinyl]-L-phenylalanine-N-methylamide, reference compound], the “inhibition of in situ gelatin degrading activity of MT1-MMP” value (MT1-MMP) was “confirmed to be inhibited; also recorded: completely inhibited” and the “activation of endogenous proMMP-2” value (HT1080 cells) was “sensitive to BB94”.

Reference: patent US20040120954A1, “Regulation of mt1-mmp activity” (priority 2000, published 2004)
